PubChem BioAssay AID652243 | Drosophila RNAi Screening Center – 2013
Test: 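Knock-downs that decrease or increase androgen receptor reporter signal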 (primary screen). System: Drosophila S2R+ cells. Reagent: long dsRNA against Drosophila genes. Time to read-out: 72 h (48 h, then 24 h hormone). Treatment: synthetic androgen R1881 at 10 nM for 24 h. Measured: 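Firefly light from an androgen-responsive reporter and Renilla control light per well, raw and unnormalised, for each of two replicates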. Reading the numbers: firefly reporter light: higher = more light from androgen-responsive reporter; Renilla control light: higher = more constitutive control signal (cell number, transfection). Hit rule: 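Hit when the log firefly-to-Renilla ratio dropped or increased by a fixed fold versus the mean of GFP or LacZ controls across duplicate plates; lowering cut given as 1.5 and as 3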. Calls: active = hit: reporter lowered or raised; inactive = no hit.
In all, the deposit lists about 24,000 reagents; this is a random part of those with a known target gene and a result. Over the whole deposit, 246 (1%) got an active call. 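Plates not normalised; calls are printed but the firefly/Renilla ratio behind them is not deposited; fold cut for lowering reported inconsistently.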 Raw values are not corrected between plates. Entries without a mark were called inactive. Reagents against one gene are numbered here. Names joined by + are all predicted targets of the reagent. Not stated in the record: the amount of reagent.

For Hpr1 (GeneID 40723), what was measured?
firefly reporter light, replicate 1: 21470; firefly reporter light, replicate 2: 48863; Renilla control light, replicate 1: 2.40e5; Renilla control light, replicate 2: 4.60e5

Which result is listed for CG14492 (GeneID 37045)?
firefly reporter light, replicate 1: 82875; firefly reporter light, replicate 2: 83534; Renilla control light, replicate 1: 1.02e6; Renilla control light, replicate 2: 1.02e6

How did the screen score CG15471 (GeneID 31412) #1?
firefly reporter light, replicate 1: 3.11e5; firefly reporter light, replicate 2: 3.02e5; Renilla control light, replicate 1: 2.86e6; Renilla control light, replicate 2: 2.93e6

What is on record for CG15471 (GeneID 31412) #2?
firefly reporter light, replicate 1: 3.43e5; firefly reporter light, replicate 2: 3.42e5; Renilla control light, replicate 1: 6.74e5; Renilla control light, replicate 2: 5.94e5

For MBD-like (GeneID 41151), how do the results read?
firefly reporter light, replicate 1: 2.06e5; firefly reporter light, replicate 2: 2.58e5; Renilla control light, replicate 1: 3.62e6; Renilla control light, replicate 2: 4.02e6

What did the screen give for GalT1 (GeneID 36279)?
firefly reporter light, replicate 1: 9.00e5; firefly reporter light, replicate 2: 7.31e5; Renilla control light, replicate 1: 1.98e6; Renilla control light, replicate 2: 1.39e6

For Upf3 (GeneID 37792) #1, what does the deposit list?
firefly reporter light, replicate 1: 1.14e6; firefly reporter light, replicate 2: 5.71e5; Renilla control light, replicate 1: 1.62e6; Renilla control light, replicate 2: 8.63e5

With Upf3 (GeneID 37792) #2, what does the deposit list?
firefly reporter light, replicate 1: 2.12e5; firefly reporter light, replicate 2: 2.91e5; Renilla control light, replicate 1: 5.35e5; Renilla control light, replicate 2: 5.41e5

What did the screen give for CG17826 (GeneID 39354) #1?
firefly reporter light, replicate 1: 3.12e5; firefly reporter light, replicate 2: 2.23e5; Renilla control light, replicate 1: 3.06e6; Renilla control light, replicate 2: 2.38e6

Which result is listed for CG17826 (GeneID 39354) #2?
firefly reporter light, replicate 1: 3.27e5; firefly reporter light, replicate 2: 3.58e5; Renilla control light, replicate 1: 1.48e6; Renilla control light, replicate 2: 1.45e6

For CG17826 (GeneID 39354) #3, how do the results read?
firefly reporter light, replicate 1: 7.52e5; firefly reporter light, replicate 2: 8.51e5; Renilla control light, replicate 1: 1.94e6; Renilla control light, replicate 2: 2.67e6

For Fbxo42 (GeneID 37532) #1, what was measured?
firefly reporter light, replicate 1: 1.77e6; firefly reporter light, replicate 2: 4.47e5; Renilla control light, replicate 1: 2.38e6; Renilla control light, replicate 2: 1.03e6

What is on record for Fbxo42 (GeneID 37532) #2?
firefly reporter light, replicate 1: 7.19e5; firefly reporter light, replicate 2: 7.26e5; Renilla control light, replicate 1: 1.64e6; Renilla control light, replicate 2: 1.66e6

For Mettl5 + CG42374, what was measured?
firefly reporter light, replicate 1: 4.06e5; firefly reporter light, replicate 2: 2.25e5; Renilla control light, replicate 1: 7.69e5; Renilla control light, replicate 2: 5.22e5

How did the screen score CG9649 (GeneID 41727) #1?
firefly reporter light, replicate 1: 17679; firefly reporter light, replicate 2: 29250; Renilla control light, replicate 1: 2.14e5; Renilla control light, replicate 2: 2.33e5

With CG9649 (GeneID 41727) #2, what does the deposit list?
firefly reporter light, replicate 1: 7.11e5; firefly reporter light, replicate 2: 7.27e5; Renilla control light, replicate 1: 1.14e6; Renilla control light, replicate 2: 1.07e6

For Osi3 (GeneID 40757), how do the results read?
firefly reporter light, replicate 1: 34557; firefly reporter light, replicate 2: 55244; Renilla control light, replicate 1: 1.28e6; Renilla control light, replicate 2: 1.17e6

For tra (GeneID 39849), what does the deposit list?
firefly reporter light, replicate 1: 2.72e5; firefly reporter light, replicate 2: 1.94e5; Renilla control light, replicate 1: 2.59e6; Renilla control light, replicate 2: 1.42e6

For NK7.1 (GeneID 41747), how do the results read?
firefly reporter light, replicate 1: 4.14e5; firefly reporter light, replicate 2: 4.80e5; Renilla control light, replicate 1: 4.67e5; Renilla control light, replicate 2: 5.65e5

How did the screen score CG2113 (GeneID 38356) #1?
firefly reporter light, replicate 1: 1.52e5; firefly reporter light, replicate 2: 81641; Renilla control light, replicate 1: 1.50e6; Renilla control light, replicate 2: 8.63e5

What did the screen give for CG2113 (GeneID 38356) #2?
firefly reporter light, replicate 1: 6.11e5; firefly reporter light, replicate 2: 5.73e5; Renilla control light, replicate 1: 1.35e6; Renilla control light, replicate 2: 1.35e6

What is on record for lncRNA:roX2 (GeneID 3772415) #1?
firefly reporter light, replicate 1: 6.75e5; firefly reporter light, replicate 2: 5.58e5; Renilla control light, replicate 1: 2.42e6; Renilla control light, replicate 2: 2.09e6

For lncRNA:roX2 (GeneID 3772415) #2, what was measured?
firefly reporter light, replicate 1: 3.17e5; firefly reporter light, replicate 2: 3.19e5; Renilla control light, replicate 1: 7.98e5; Renilla control light, replicate 2: 5.95e5

With kirre (GeneID 31292) #1, what does the deposit list?
firefly reporter light, replicate 1: 4.16e5; firefly reporter light, replicate 2: 4.98e5; Renilla control light, replicate 1: 4.38e6; Renilla control light, replicate 2: 4.48e6

What did the screen give for kirre (GeneID 31292) #2?
firefly reporter light, replicate 1: 4.27e5; firefly reporter light, replicate 2: 4.54e5; Renilla control light, replicate 1: 4.07e5; Renilla control light, replicate 2: 4.70e5

For CG6503 (GeneID 50079) #1, how do the results read?
firefly reporter light, replicate 1: 2.22e5; firefly reporter light, replicate 2: 2.58e5; Renilla control light, replicate 1: 3.21e6; Renilla control light, replicate 2: 3.07e6

What did the screen give for CG6503 (GeneID 50079) #2?
firefly reporter light, replicate 1: 4.29e5; firefly reporter light, replicate 2: 6.56e5; Renilla control light, replicate 1: 1.63e6; Renilla control light, replicate 2: 1.63e6

Part of the list above, set out differently:
Target gene,reagent no.,"firefly reporter light, replicate 1","firefly reporter light, replicate 2","Renilla control light, replicate 1","Renilla control light, replicate 2"
CG15471 (GeneID 31412),2,3.43e5,3.42e5,6.74e5,5.94e5
MBD-like (GeneID 41151),1,2.06e5,2.58e5,3.62e6,4.02e6
